# According to PubChem BioAssay AID485314 (National Center for Advancing Translational Sciences (NCATS), 2010):
# Among all 340,000 compounds or so, about 4,500 (1.3%) were called active. Inconclusive means that the source gave no clear call. Such entries were picked first, then a sample of the others. Calls come from the whole dose curve; as a rule, active = well fitted inhibition curve with a large enough effect; inconclusive = small, poorly fitted or top-dose-only effect, or another doubt; inactive = no such curve, though single readings can be large or run the other way. Where the call is inconclusive, the potency comes from a doubtful curve fit.
# Target: DNA polymerase beta (Homo sapiens) (UniProt P06746)
# Test: qHTS Assay for Inhibitors of DNA Polymerase Beta
# Conditions: Pol beta primer extension/strand displacement, fluorescence kinetic; activity change, negative = inhibition: at 114 µM (top of the series)
# How it was run: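 Pol beta (10 nM) and compounds were preincubated 15 min at room temperature, then 50 nM substrate (final) started primer extension/strand displacement. Reads were taken at 0 and 10 min; concentration-response data were fitted to a four-parameter Hill equation.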
# % is set by controls: 0 for no effect and ±100 for the full control effect; potency is the fitted concentration of half-maximal effect.
Compound,Potency,"activity change, negative = inhibition"
S=c1nc(-c2ccccc2)[nH]c2ccccc12,"inconclusive: 39.8 µM [inhibitor, partial curve]",–
CCC(=O)Nc1ccc(C(=O)CSc2nnc(-c3ccc(NS(=O)(=O)CC)cc3)o2)cc1OC,–,inconclusive: -45.5% [inhibitor]
CCOCCC(=O)Nc1cc(Cl)ccc1OC,"inconclusive: 89.1 µM [inhibitor, single point]",–
c1cncc(-c2nc(-c3ccc4c(c3)OCO4)cs2)c1,"inconclusive: 89.1 µM [inhibitor, single point]",–
COc1ccc(N(CCN2C(=O)c3ccccc3C2=O)C(=O)c2cccc([N+](=O)[O-])c2)cc1,active: 0.158 µM,–
Cc1cc(NS(=O)(=O)c2ccc(NC(=O)COc3ccccc3[N+](=O)[O-])cc2)no1,active: 17.8 µM,–
CC(C)(C)c1ccc(C(=O)NNC(=S)NCC2CCCO2)cc1 (centres undefined),"inconclusive: 39.8 µM [inhibitor, single point]",–
Cc1nnc(NC(=O)c2cccc(S(=O)(=O)N3CCc4ccccc43)c2)s1,–,inactive: 3.52%
O=C(O)CCc1ccc(-c2cccs2)n1NC(=O)c1ccc(Cl)cc1,"inconclusive: 89.1 µM [inhibitor, single point]",–
CNc1ccc(Br)cc(C(=O)/C=C/c2ccc(Cl)cc2Cl)c1=O,active: 31.6 µM,–
O=C(CC1COc2ccccc2O1)NCc1ccccc1 (centres undefined),"inconclusive: 89.1 µM [inhibitor, single point]",–
CCc1ccccc1NC(=O)C1=C(C)C(=O)OC12CCCCCC2,"inconclusive: 14.1 µM [inhibitor, partial curve]",–
COc1cc(CN2CCN(S(=O)(=O)c3ccccc3)CC2)cc(OC)c1O,"inconclusive: 39.8 µM [inhibitor, single point]",–
CCC(Oc1ccc(C)cc1)C(=O)Nc1ccc(S(=O)(=O)Nc2cc(C)on2)cc1 (centres undefined),"inconclusive: 100 µM [inhibitor, single point]",–
CCC(=O)N(CCC(c1ccco1)C(C)C)Cc1ccccc1 (centres undefined),–,inactive: 3%
COc1cc(-c2ccc(Nc3ccccc3C(=O)O)c(OC)c2)ccc1Nc1ccccc1C(=O)O,–,inconclusive: -112% [inhibitor]
CCN1/C(=C2/SC(=S)N(NC(C)=O)C2=O)Sc2ccccc21,"inconclusive: 22.4 µM [inhibitor, full curve, poor fit]",–
COC(=O)C/C=N/N=C1/NC(=O)/C(=C/C(=O)O)S1,active: 39.8 µM,–
COCC1CCN(Cc2c(C(=O)N3CCc4ccccc4C3)nc3ccc(Cl)cn23)C1 (centres undefined),"inconclusive: 28.2 µM [inhibitor, full curve, poor fit]",–
O=C(CCc1c[nH]c2ccccc12)Nc1ncccc1O,"inconclusive: 1.26 µM [inhibitor, full curve, poor fit]",–
Cc1ccc(-c2nc(C3CCCN(S(=O)(=O)c4ccc(C)cc4)C3)no2)cc1 (centres undefined),"inconclusive: 31.6 µM [inhibitor, single point]",–
CC1CCN(c2ccc(/C=N\Nc3nncn3N)cc2[N+](=O)[O-])CC1,–,inactive: -2.17%
O=C(COc1ccc(NC(=O)c2cccs2)cc1)c1ccc(F)cc1,"inconclusive: 1 µM [inhibitor, full curve, poor fit]",–

Compound,Potency,"activity change, negative = inhibition"
COc1ccc2c(c1)oc(=O)c1cc(OC)ccc12,"inconclusive: 11.2 µM [inhibitor, full curve, poor fit]",–
COc1ccc(OC)c(NC(=O)c2cccn2-c2nnc(N3CCCCC3)s2)c1,–,inactive: 1.72%
COc1cc(C)c2c(c1C=O)Oc1c(c(C)c(O)c3c1C(O)OC3=O)OC2=O (centres undefined),active: 7.94 µM,–
O=c1c(=Nc2ccccc2O)c(=O)c2ccccc12,"inconclusive: 39.8 µM [inhibitor, partial curve]",–
CCN(CC)c1nc(N)c2c(N)n(-c3ccccc3C)c(=S)c(C#N)c2c1C#N,–,inactive: 10.2%
COc1ccc(CNC(=O)c2cccc3c2C(=O)N(Cc2cccnc2)C3)cc1,–,inactive: 4.94%
O=C(Cn1ncc2c3ccccc3n(Cc3cccc(Cl)c3)c2c1=O)NC1CCCCCC1,active: 12.6 µM,–
CN1CCN(CC(=O)Nc2sc3c(c2C#N)CCC(C(C)(C)C)C3)CC1 (centres undefined),"inconclusive: 89.1 µM [inhibitor, single point]",–
Cn1ccc2c(OCC(=O)Nc3cc(C(F)(F)F)ccc3Cl)cccc2c1=O,"inconclusive: 3.98 µM [inhibitor, full curve]",–
O=C(CSc1ncccn1)NC(=O)NCc1ccco1,"inconclusive: 31.6 µM [inhibitor, full curve]",–
Cc1ccccc1NC(=O)Cc1cccs1,–,inactive: 0.166%
Cc1ccc(Sc2ccc(/C=C3/C(=O)NN(c4ccccc4)C3=O)o2)cc1,–,inconclusive: -75.6% [inhibitor]
CCc1ccc(-c2nc(CS(=O)CC(=O)NCCc3ccc(Cl)cc3)c(C)o2)cc1 (centres undefined),–,inactive: -13%
COc1ccc(N2CCN(C(=O)Cc3ccc(-n4c(=O)[nH]c5ccccc5c4=O)cc3)CC2)cc1,"inconclusive: 22.4 µM [inhibitor, single point]",–
Cc1ccc(S(=O)(=O)Oc2ccc(/C=C3\N=C(c4cccc(C)c4)OC3=O)cc2)cc1,"inconclusive: 7.94 µM [inhibitor, partial curve, poor fit]",–
O=C1CCCC2=C1C(c1ccc(O)c(O)c1)c1c(ccc3ncccc13)N2 (centres undefined),active: 6.31 µM,–
O=C(CCl)N1N=C(c2ccco2)CC1c1ccco1 (centres undefined),active: 25.1 µM,–
Cc1sc(NC(=O)C(C)C)c(C(=O)Nc2ccccc2)c1C,"inconclusive: 4.47 µM [inhibitor, full curve, poor fit]",–
Cc1ccc2[nH]c(CSc3nnc(NC(=O)c4ccc(Cl)cc4)s3)cc(=O)c2c1,–,inactive: -13.6%
O=C(O)CCCC(=O)N1N=C(c2ccccc2)CC1c1ccc2c(c1)OCO2 (centres undefined),"inconclusive: 5.01 µM [inhibitor, single point]",–
CC1CN(CC(=O)NC(C)c2ccccc2)CC(C)O1 (centres undefined),"inconclusive: 100 µM [inhibitor, single point]",–
Cc1oc2c(c1C(=O)O)C(=O)c1ccccc1C2=O,–,inactive: 3.23%
COc1ccccc1Nc1nc(N)nc(CSc2nncn2C)n1,"inconclusive: 0.141 µM [inhibitor, full curve, poor fit]",–

Compound,Potency,"activity change, negative = inhibition"
CCOC(=O)C1=CN(C)C=C(C(=O)OCC)C1c1ccsc1,"inconclusive: 79.4 µM [inhibitor, single point]",–
COc1cc(/C=C2\C(=N)N3N=C(S(C)(=O)=O)SC3=NC2=O)ccc1OS(=O)(=O)c1ccc(C)cc1,active: 100 µM,–
COc1ccc(OC)c(CCNC(=O)C2CCN(c3nnc(-n4cccc4)s3)CC2)c1,"inconclusive: 89.1 µM [inhibitor, single point]",–
Cc1ccc(Cn2nnc3c(=O)n(CC(=O)NCc4ccccc4)cnc32)cc1,"inconclusive: 22.4 µM [inhibitor, full curve]",–
Clc1ccc(-c2nc(N3CCCCC3)nc3ccccc23)cc1,"inconclusive: 3.16 µM [inhibitor, single point]",–
C=CCN1C(=O)C(O)(CC(=O)c2ccccc2)c2ccccc21 (centres undefined),"inconclusive: 89.1 µM [inhibitor, single point]",–
COc1cc(C2CC(=O)Oc3c2c(=O)n(C)c2ccccc32)cc(OC)c1OC (centres undefined),"inconclusive: 79.4 µM [inhibitor, single point]",–
Cc1cccc(N(CC(=O)NC2CCCCC2)C(=O)Cn2nnc(-c3ccc(C)o3)n2)c1,"inconclusive: 89.1 µM [inhibitor, single point]",–
CC1(C)CC(=O)C2=C(C1)OC(N)=C(C#N)C2Cc1ccccc1 (centres undefined),"inconclusive: 0.794 µM [inhibitor, full curve, poor fit]",–
O=C(N/N=C/c1c(O)n(Cc2ccco2)c(=O)[nH]c1=O)c1ccccc1,–,inconclusive: -56.8% [inhibitor]
COc1cc(/C=N/NC(=O)c2cccc([N+](=O)[O-])c2)ccc1O,"inconclusive: 89.1 µM [inhibitor, single point]",–
CCCN(Cc1cc2cc(OC)ccc2[nH]c1=O)C(=O)c1ccncc1,"inconclusive: 6.31 µM [inhibitor, full curve, poor fit]",–
Cc1coc2c(C)c3oc(=O)c(CCC(=O)N(C)CC(=O)O)c(C)c3cc12,active: 79.4 µM,–
COc1ccc(OC)c(NC(=O)/C=C/c2ccc(C)o2)c1,–,inactive: 11%
O=C(CSc1nc(Cc2ccccc2)nc2ccccc12)Nc1ccc2c(c1)OCCO2,"inconclusive: 31.6 µM [inhibitor, partial curve, poor fit]",–
COc1ccc(C2C=C(c3ccccc3)Nc3nc(NS(=O)(=O)c4ccc(Cl)cc4)nn32)cc1 (centres undefined),–,inactive: 11.5%
Cc1[nH]c2ccc(C(=O)N3CCN(c4ccc(F)cc4)CC3)cc2c1C,"inconclusive: 0.141 µM [inhibitor, full curve, poor fit]",–
CCOC(=O)c1ccccc1NC(=O)N1CCCN(S(=O)(=O)c2ccc3c(ccn3CC)c2)CC1,–,inactive: -7.98%
O=C(N/N=C/c1ccc(OC(=O)c2cccc(Br)c2)cc1)c1cccnc1,"inconclusive: 31.6 µM [inhibitor, full curve]",–
O=C1C2C3CC(C(Br)C3Br)C2C(=O)N1CC1CCCO1 (centres undefined),–,inconclusive: -32.3% [inhibitor]
COc1ccc(NC(=O)CSc2nnc3scc(-c4ccc(Cl)cc4)n23)cc1,"inconclusive: 0.141 µM [inhibitor, full curve]",–
CCOc1ccc(NC(=O)CCS(=O)(=O)c2ccc(Br)s2)cc1,active: 28.2 µM,–
COc1ccc(C(=O)NCCN2CCCC2)cc1,"inconclusive: 20 µM [inhibitor, single point]",–

# 5 structures already listed, sorted by formula weight, smallest number first:
Compound,Potency,"activity change, negative = inhibition"
COc1cc(/C=N/NC(=O)c2cccc([N+](=O)[O-])c2)ccc1O,"inconclusive: 89.1 µM [inhibitor, single point]",–
CCOC(=O)C1=CN(C)C=C(C(=O)OCC)C1c1ccsc1,"inconclusive: 79.4 µM [inhibitor, single point]",–
O=C(N/N=C/c1c(O)n(Cc2ccco2)c(=O)[nH]c1=O)c1ccccc1,–,inconclusive: -56.8% [inhibitor]
Cc1ccc(Cn2nnc3c(=O)n(CC(=O)NCc4ccccc4)cnc32)cc1,"inconclusive: 22.4 µM [inhibitor, full curve]",–
COc1cc(C2CC(=O)Oc3c2c(=O)n(C)c2ccccc32)cc(OC)c1OC (centres undefined),"inconclusive: 79.4 µM [inhibitor, single point]",–
